# Source: patent US7718700B2, “Growth factor-binding compounds and methods of use” (Yale University, priority 2004, dated 2010)
# Some of these results come from one statement about several compounds together.
# Tested on: PDGFR
# Test: PDGF-stimulated PDGFR tyrosine phosphorylation in NIH 3T3 cells
# Type: cell-based, mouse
# Conditions: PDGF-BB 10 ng/ml stimulated receptor tyrosine phosphorylation
# Method: Inhibition of growth factor-dependent receptor tyrosine phosphorylation by GFBs. Starved Flk-1/KDR-overexpressing NIH 3T3 cells (Flk-1/NIH 3T3) or NIH 3T3 cells were pretreated with GFBs for 5 min before stimulation with VEGF (50 ng/ml) or PDGF-BB (10 ng/ml) for 10 min, respectively. The cells were then harvested and lysed, and proteins from the lysates were separated by SDS-PAGE and transferred to nitrocellulose. Membranes then were either immunoblotted with anti-phospho-VEGFR2 antibody (Cell Signaling Technologies, Beverly, Mass.) for activated Flk-1 or anti-phospho-tyrosine antibody (4G10, Upstate Biotechnology, Lake Placid, N.Y.) for activated PDGFR. Phosphotyrosine Flk-1 and PDGFR were quantified using a Bio-Rad Model GS-700 Imaging Densitometer (Bio-Rad Laboratories, Inc, Hercules, Calif.) (Blaskovich, M. A. et al. Nat Biotechnol, 2000, 18:1065-70).
compound,measurement,value
CCCCOc1c2cc(C(=O)Nc3cc(C(=O)NCCC(=O)O)cc(C(=O)N[C@@H](Cc4ccc(OCC(=O)O)cc4)C(=O)O)c3)cc1Cc1cc(C(=O)Nc3cc(C(=O)NCCC(=O)O)cc(C(=O)N[C@@H](Cc4ccc(OCC(=O)O)cc4)C(=O)O)c3)cc(c1OCCCC)Cc1cc(C(=O)Nc3cc(C(=O)NCCC(=O)O)cc(C(=O)N[C@@H](Cc4ccc(OCC(=O)O)cc4)C(=O)O)c3)cc(c1OCCCC)Cc1cc(C(=O)Nc3cc(C(=O)NCCC(=O)O)cc(C(=O)N[C@@H](Cc4ccc(OCC(=O)O)cc4)C(=O)O)c3)cc(c1OCCCC)C2 [GFB208],IC50,1 to 6 µM
